Data as given in patent US20110236506A1, “PHARMACEUTICAL ASSOCIATION CONTAINING LIPOIC ACID AND HYDROXYCITRIC ACID AS ACTIVE INGREDIENTS” (priority 2008, published 2011).
Some results were stated once for a whole list of compounds, not compound by compound.

Tested on: HT-29 and T-24 cell lines
Assay: Cell viability tests, observations stated jointly for the two cell lines
Assay type: cell-based
Conditions: taken separately, 100 μmol.l−1; at best; FIGS. 1B, 2B
Protocol: The tumor cell lines were cultured in monolayer at 37° C. in a humidified atmosphere (5% CO2, 95% air). The culture medium which was used is DMEM Glutamax I (Invitrogen) for the two lines, supplemented with 10% of fetal calf serum (Eurobio) and 1/10 000 IU of penicillin and streptomycin. For carrying out the experiments, the human tumor cell lines were detached from the culture flask by treatment for 10 minutes with a solution of trypsin in Hanks medium without calcium or magnesium. The cells were counted in a hemocytometer and their viability was determined using the trypan blue exclusion test. […]
Starting from the first day of contact, and every two days after the beginning of the contacting of the culture media containing the test substances and the reference substances at the various concentrations tested, the proliferation and the cell viability of the cells were evaluated. The cell viability was evaluated in two different ways: • directly, under an optical microscope by statistical counting (number of cells), and • indirectly, by colorimetric assay based on the degradation of tetrazolium salts by mitochondrial dehydrogenases (MIT test). The optical densities (OD) of each well were then read with a microplate reader set at the appropriate wavelength.

Substance: calcium hydroxycitrate
- cell mortality: ≤ 50%
